Earlier results, collected in patent US20240251794A1, “USE OF QUASSIA-EXTRACT FOR A SEED TREATMENT AS INSECTICIDE” (KWS SAAT SE & Co. KGaA, priority 2021, published 2024).

## COC1=C[C@@H](C)[C@@H]2C[C@H]3OC(=O)C[C@H]4C(C)=C(OC)C(=O)[C@H]([C@@]2(C)C1=O)[C@@]34C [Quassin, 2,12-dimethoxypicrasa-2,12-diene-1,11,16-trione]
Relative to caffeine
  more bitter than caffeine: 1670 times
Relative to quinine
  more bitter than quinine: 50 times
